Data as given in the supplement of paper PMC8728848.
The other results are listed elsewhere or left out.

Tests used:
Test in all cases: glycan array binding signal (z-score within array); higher = stronger binding
Settings in all cases: glycan notation: IUPAC condensed, linker removed
[1] = target: Gal(a1-3)Gal(b1-4)GlcNAc
Procedure, shortened: (§1)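 Glycan array binding is given as a within-array Z-score, which can be read as non-binding when negative. The arrays, 3228 of them, came from the Consortium for Functional Glycomics database and were retained only where the protein sequence was available. Z-scores were averaged across arrays of the same protein sequence at different concentrations or buffers and across linkers.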

[2] = target: Gal(a1-3)Gal(b1-4)GlcNAc(b1-2)Man
Procedure, shortened: as §1

[3] = target: Gal(a1-3)Gal(b1-4)GlcNAc(b1-2)Man(a1-3)[Gal(a1-3)Gal(b1-4)GlcNAc(b1-2)Man(a1-6)]Man(b1-4)GlcNAc(b1-4)GlcNAc
Procedure, shortened: as §1

[4] = target: Gal(a1-3)Gal(b1-4)GlcNAc(b1-3)GalNAc
Procedure, shortened: as §1

[5] = target: Gal(a1-3)Gal(b1-4)GlcNAc(b1-6)GalNAc
Procedure, shortened: as §1

[6] = target: Gal(a1-3)Gal(b1-4)[Fuc(a1-3)]GlcNAc
Procedure, shortened: as §1

[7] = target: Gal(a1-3)Gal(b1-4)[Fuc(a1-3)]GlcNAc(b1-2)Man(a1-3)[Gal(a1-3)Gal(b1-4)[Fuc(a1-3)]GlcNAc(b1-2)Man(a1-6)]Man(b1-4)GlcNAc(b1-4)GlcNAc
Procedure, shortened: as §1

[8] = target: Gal(a1-3)GalNAc
Procedure, shortened: as §1

[9] = target: Gal(a1-3)[Gal(a1-4)]Gal(b1-4)GlcNAc
Procedure, shortened: as §1

[10] = target: Gal(a1-4)Gal(b1-3)GlcNAc(b1-2)Man(a1-3)[Gal(a1-4)Gal(b1-3)GlcNAc(b1-2)Man(a1-6)]Man(b1-4)GlcNAc(b1-4)GlcNAc
Procedure, shortened: as §1

[11] = target: Gal(a1-4)Gal(b1-4)Glc
Procedure, shortened: as §1

[12] = target: Gal(a1-4)Gal(b1-4)GlcNAc
Procedure, shortened: as §1

[13] = target: Gal(a1-4)Gal(b1-4)GlcNAc(b1-2)Man(a1-3)[Gal(a1-4)Gal(b1-4)GlcNAc(b1-2)Man(a1-6)]Man(b1-4)GlcNAc(b1-4)GlcNAc
Procedure, shortened: as §1

[14] = target: Gal(a1-4)Gal(b1-4)GlcNAc(b1-3)Gal(b1-4)Glc
Procedure, shortened: as §1

[15] = target: Gal(a1-4)GlcNAc
Procedure, shortened: as §1

[16] = target: Gal(a1-6)Glc
Procedure, shortened: as §1

[17] = target: Gal(b1-2)Gal
Procedure, shortened: as §1

[18] = target: Gal(b1-3)Gal
Procedure, shortened: as §1

[19] = target: Gal(b1-3)Gal(b1-4)GlcNAc
Procedure, shortened: as §1

[20] = target: Gal(b1-3)GalNAc
Procedure, shortened: as §1

[21] = target: Gal(b1-3)GalNAc(a1-3)[Fuc(a1-2)]Gal(b1-4)Glc
Procedure, shortened: as §1

[22] = target: Gal(b1-3)GalNAc(a1-3)[Fuc(a1-2)]Gal(b1-4)GlcNAc
Procedure, shortened: as §1

[23] = target: Gal(b1-3)GalNAc(b1-3)Gal
Procedure, shortened: as §1

[24] = target: Gal(b1-3)GalNAc(b1-3)Gal(a1-4)Gal(b1-4)Glc
Procedure, shortened: as §1

[25] = target: Gal(b1-3)GalNAc(b1-4)Gal(b1-4)Glc
Procedure, shortened: as §1

[26] = target: Gal(b1-3)GalNAc(b1-4)[Neu5Ac(a2-3)]Gal(b1-4)Glc
Procedure, shortened: as §1

[27] = target: Gal(b1-3)GlcNAc
Procedure, shortened: as §1

[28] = target: Gal(b1-3)GlcNAc(a1-3)Gal(b1-4)GlcNAc
Procedure, shortened: as §1

[29] = target: Gal(b1-3)GlcNAc(a1-6)Gal(b1-4)GlcNAc
Procedure, shortened: as §1

[30] = target: Gal(b1-3)GlcNAc(b1-2)Man
Procedure, shortened: as §1

[31] = target: Gal(b1-3)GlcNAc(b1-2)Man(a1-3)[Gal(b1-3)GlcNAc(b1-2)Man(a1-6)]Man(b1-4)GlcNAc(b1-4)GlcNAc
Procedure, shortened: as §1

[32] = target: Gal(b1-3)GlcNAc(b1-2)Man(a1-3)[Gal(b1-3)GlcNAc(b1-2)Man(a1-6)]Man(b1-4)GlcNAc(b1-4)[Fuc(a1-6)]GlcNAc
Procedure, shortened: as §1

[33] = target: Gal(b1-3)GlcNAc(b1-2)Man(a1-3)[GlcNAc(b1-4)][Gal(b1-3)GlcNAc(b1-2)Man(a1-6)]Man(b1-4)GlcNAc(b1-4)GlcNAc
Procedure, shortened: as §1

[34] = target: Gal(b1-3)GlcNAc(b1-2)[Gal(b1-3)GlcNAc(b1-6)]Man(a1-6)[Gal(b1-3)GlcNAc(b1-2)Man(a1-3)]Man(b1-4)GlcNAc(b1-4)GlcNAc
Procedure, shortened: as §1

[35] = target: Gal(b1-3)GlcNAc(b1-3)Gal(b1-3)GlcNAc
Procedure, shortened: as §1

[36] = target: Gal(b1-3)GlcNAc(b1-3)Gal(b1-4)Glc
Procedure, shortened: as §1

[37] = target: Gal(b1-3)GlcNAc(b1-3)Gal(b1-4)GlcNAc
Procedure, shortened: as §1

[38] = target: Gal(b1-3)GlcNAc(b1-3)Gal(b1-4)GlcNAc(b1-2)Man(a1-3)[Gal(b1-3)GlcNAc(b1-3)Gal(b1-4)GlcNAc(b1-2)Man(a1-6)]Man(b1-4)GlcNAc(b1-4)GlcNAc
Procedure, shortened: as §1

[39] = target: Gal(b1-3)GlcNAc(b1-3)Gal(b1-4)GlcNAc(b1-2)[Gal(b1-3)GlcNAc(b1-3)Gal(b1-4)GlcNAc(b1-6)]Man(a1-6)[Gal(b1-3)GlcNAc(b1-3)Gal(b1-4)GlcNAc(b1-2)Man(a1-3)]Man(b1-4)GlcNAc(b1-4)[Fuc(a1-6)]GlcNAc
Procedure, shortened: as §1

[40] = target: Gal(b1-3)GlcNAc(b1-3)Gal(b1-4)GlcNAc(b1-3)Gal(b1-4)GlcNAc(b1-2)[Gal(b1-3)GlcNAc(b1-3)Gal(b1-4)GlcNAc(b1-3)Gal(b1-4)GlcNAc(b1-6)]Man(a1-6)[Gal(b1-3)GlcNAc(b1-3)Gal(b1-4)GlcNAc(b1-3)Gal(b1-4)GlcNAc(b1-2)Man(a1-3)]Man(b1-4)GlcNAc(b1-4)[Fuc(a1-6)]GlcNAc
Procedure, shortened: as §1

[41] = target: Gal(b1-3)GlcNAc(b1-3)Gal(b1-4)GlcNAc(b1-6)[Gal(b1-3)GlcNAc(b1-3)]Gal(b1-4)Glc
Procedure, shortened: as §1

[42] = target: Gal(b1-3)GlcNAc(b1-3)Gal(b1-4)[Fuc(a1-3)]GlcNAc
Procedure, shortened: as §1

[43] = target: Gal(b1-3)GlcNAc(b1-3)Gal(b1-4)[Fuc(a1-3)]GlcNAc(b1-6)[Gal(b1-3)GlcNAc(b1-3)]Gal(b1-4)Glc
Procedure, shortened: as §1

[44] = target: Gal(b1-3)GlcNAc(b1-3)GalNAc
Procedure, shortened: as §1

[45] = target: Gal(b1-3)GlcNAc(b1-6)Gal(b1-4)GlcNAc
Procedure, shortened: as §1

B1: LysMD3 (Homo sapiens), Q7Z3D4 (protein)
chain: MAGRHQNRSFPLPGVQSSGQVHAFGNCSDSDILEEDAEVYELRSRGKEKVRRSTSRDRLDDIIVLTKDIQEGDTLNAIALQYCCTVADIKRVNNLISDQDFFALRSIKIPVKKFSSLTETLCPPKGRQTSRHSSVQYSSEQQEILPANDSLAYSDSAGSFLKEVDRDIEQIVKCTDNKRENLNEVVSALTAQQMRFEPDNKNTQRKDPYYGADWGIG
glycan array binding signal (z-score) [1]: 0.832
glycan array binding signal (z-score) [2]: -0.21
glycan array binding signal (z-score) [3]: 0.026
glycan array binding signal (z-score) [4]: -1.23
glycan array binding signal (z-score) [5]: -0.489
glycan array binding signal (z-score) [6]: 0.873
glycan array binding signal (z-score) [7]: -0.767
glycan array binding signal (z-score) [8]: -0.129
glycan array binding signal (z-score) [9]: 0.649
glycan array binding signal (z-score) [10]: -0.741
glycan array binding signal (z-score) [11]: -0.441
glycan array binding signal (z-score) [12]: 0.938
glycan array binding signal (z-score) [13]: 0.66
glycan array binding signal (z-score) [14]: -0.099
glycan array binding signal (z-score) [15]: 0.113
glycan array binding signal (z-score) [16]: -0.604
glycan array binding signal (z-score) [17]: 0.006
glycan array binding signal (z-score) [18]: 0.706
glycan array binding signal (z-score) [19]: -0.097
glycan array binding signal (z-score) [20]: 0.117
glycan array binding signal (z-score) [21]: -0.337
glycan array binding signal (z-score) [22]: -0.452
glycan array binding signal (z-score) [23]: 0.183
glycan array binding signal (z-score) [24]: 0.313
glycan array binding signal (z-score) [25]: 0.058
glycan array binding signal (z-score) [26]: 0.659
glycan array binding signal (z-score) [27]: 0.409
glycan array binding signal (z-score) [28]: -0.284
glycan array binding signal (z-score) [29]: 0.772
glycan array binding signal (z-score) [30]: 1.23
glycan array binding signal (z-score) [31]: -1.19
glycan array binding signal (z-score) [32]: -0.083
glycan array binding signal (z-score) [33]: -0.659
glycan array binding signal (z-score) [34]: 0.88
glycan array binding signal (z-score) [35]: -0.195
glycan array binding signal (z-score) [36]: 0.856
glycan array binding signal (z-score) [37]: -0.113
glycan array binding signal (z-score) [38]: -0.246
glycan array binding signal (z-score) [39]: -0.134
glycan array binding signal (z-score) [40]: -0.255
glycan array binding signal (z-score) [41]: -0.798
glycan array binding signal (z-score) [42]: 2.15
glycan array binding signal (z-score) [43]: -0.547
glycan array binding signal (z-score) [44]: -0.895
glycan array binding signal (z-score) [45]: 1.65
